Experiment in all cases: log2 fold change, soluble protein after heating vs DMSO (PISA); higher = thermal stabilisation; K562 lysate, 10 uM; active = over 0.2 and 3.5 SD of the protein, either way, in both replicates (recomputed)
Compound in one experiment: CCCS(=O)(=O)Nc1ccc(F)c(C(=O)c2c[nH]c3ncc(-c4ccc(Cl)cc4)cc23)c1F [vemurafenib]
The gist of the method: (§1)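 To prepare the extract, K562 pellets were dounce-homogenised in PBS pH 7.4 with 1 mM MgCl2, giving crude material at 1 mg/mL protein. This was treated with 10 μM compound for 30 min, then heated in aliquots for 3 min over 48°C-58°C before pooling and addition of NP-40 to 0.5% at 4°C. Centrifugation at 21,000xg for 90 min left soluble protein in the supernatant, which TMTpro 16plex LC-MS/MS quantified with equalised channel sums. Results are log-two fold changes in thermal stability compared with solvent controls, from duplicates.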

The chains behind the UniProt entries cited, without tags or fusion partners. Where a name states a change or a piece, a line headed by the entry shows the natural chain unless it says otherwise.
UniProt Q9Y478: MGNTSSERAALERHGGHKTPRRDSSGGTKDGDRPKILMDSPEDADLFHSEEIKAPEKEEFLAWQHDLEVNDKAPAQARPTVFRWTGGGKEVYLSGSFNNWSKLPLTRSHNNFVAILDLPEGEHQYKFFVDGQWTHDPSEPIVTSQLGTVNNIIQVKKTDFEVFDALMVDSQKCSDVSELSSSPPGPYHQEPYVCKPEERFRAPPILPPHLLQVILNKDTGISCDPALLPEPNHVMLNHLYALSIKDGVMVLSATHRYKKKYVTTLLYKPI
UniProt P35813: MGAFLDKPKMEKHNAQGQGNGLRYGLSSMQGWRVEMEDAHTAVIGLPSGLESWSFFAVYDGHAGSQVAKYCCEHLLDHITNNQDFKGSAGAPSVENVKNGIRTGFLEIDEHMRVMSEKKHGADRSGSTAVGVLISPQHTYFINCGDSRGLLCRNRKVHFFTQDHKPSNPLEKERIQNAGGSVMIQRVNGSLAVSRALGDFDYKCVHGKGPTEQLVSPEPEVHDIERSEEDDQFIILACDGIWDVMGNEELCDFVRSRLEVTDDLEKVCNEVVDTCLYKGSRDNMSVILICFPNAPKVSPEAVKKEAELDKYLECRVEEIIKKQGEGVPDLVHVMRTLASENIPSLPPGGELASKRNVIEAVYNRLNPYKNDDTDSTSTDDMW
UniProt Q13356: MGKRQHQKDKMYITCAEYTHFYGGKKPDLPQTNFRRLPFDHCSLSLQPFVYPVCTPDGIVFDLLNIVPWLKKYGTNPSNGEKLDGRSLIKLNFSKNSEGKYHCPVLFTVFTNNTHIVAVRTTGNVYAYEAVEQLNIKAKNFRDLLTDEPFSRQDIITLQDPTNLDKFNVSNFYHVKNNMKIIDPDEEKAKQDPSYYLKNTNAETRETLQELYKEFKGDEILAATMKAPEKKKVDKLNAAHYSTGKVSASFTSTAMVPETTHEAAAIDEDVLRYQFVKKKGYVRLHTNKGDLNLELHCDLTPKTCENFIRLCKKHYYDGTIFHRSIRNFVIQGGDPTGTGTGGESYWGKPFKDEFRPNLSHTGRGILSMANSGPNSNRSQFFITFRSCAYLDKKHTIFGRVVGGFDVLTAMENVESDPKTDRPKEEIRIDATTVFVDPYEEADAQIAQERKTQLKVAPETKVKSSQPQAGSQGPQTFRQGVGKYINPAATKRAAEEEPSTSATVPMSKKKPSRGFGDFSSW
UniProt O43741: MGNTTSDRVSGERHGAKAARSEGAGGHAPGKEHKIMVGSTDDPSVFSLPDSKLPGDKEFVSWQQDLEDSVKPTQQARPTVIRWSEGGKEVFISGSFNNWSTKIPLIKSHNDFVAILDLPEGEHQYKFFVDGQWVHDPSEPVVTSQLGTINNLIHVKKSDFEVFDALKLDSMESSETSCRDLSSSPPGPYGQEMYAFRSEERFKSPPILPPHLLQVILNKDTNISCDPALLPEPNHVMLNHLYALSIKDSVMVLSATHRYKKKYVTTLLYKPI
UniProt P63098, whole entry, looked up: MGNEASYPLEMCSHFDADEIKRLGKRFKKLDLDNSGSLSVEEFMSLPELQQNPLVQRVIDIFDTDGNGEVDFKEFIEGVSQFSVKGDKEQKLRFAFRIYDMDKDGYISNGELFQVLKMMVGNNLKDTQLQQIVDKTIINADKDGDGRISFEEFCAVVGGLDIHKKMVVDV
UniProt Q86UA1: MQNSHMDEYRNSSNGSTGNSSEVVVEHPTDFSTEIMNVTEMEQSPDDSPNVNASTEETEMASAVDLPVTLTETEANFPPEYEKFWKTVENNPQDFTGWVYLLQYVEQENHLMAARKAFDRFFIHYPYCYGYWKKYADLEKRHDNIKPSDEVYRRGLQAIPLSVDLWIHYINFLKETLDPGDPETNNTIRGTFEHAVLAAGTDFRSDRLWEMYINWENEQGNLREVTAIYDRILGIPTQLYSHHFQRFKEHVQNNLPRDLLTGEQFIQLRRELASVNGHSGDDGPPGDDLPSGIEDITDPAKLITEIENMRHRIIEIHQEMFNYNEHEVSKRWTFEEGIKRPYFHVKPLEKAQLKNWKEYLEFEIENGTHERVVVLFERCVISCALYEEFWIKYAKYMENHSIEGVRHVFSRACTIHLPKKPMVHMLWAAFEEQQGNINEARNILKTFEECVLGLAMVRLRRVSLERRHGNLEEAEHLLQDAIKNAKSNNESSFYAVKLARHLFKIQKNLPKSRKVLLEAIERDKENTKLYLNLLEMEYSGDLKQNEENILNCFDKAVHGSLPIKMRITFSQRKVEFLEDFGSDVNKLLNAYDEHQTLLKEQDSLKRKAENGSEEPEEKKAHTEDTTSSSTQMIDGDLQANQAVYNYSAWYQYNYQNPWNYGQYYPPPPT
UniProt O15091: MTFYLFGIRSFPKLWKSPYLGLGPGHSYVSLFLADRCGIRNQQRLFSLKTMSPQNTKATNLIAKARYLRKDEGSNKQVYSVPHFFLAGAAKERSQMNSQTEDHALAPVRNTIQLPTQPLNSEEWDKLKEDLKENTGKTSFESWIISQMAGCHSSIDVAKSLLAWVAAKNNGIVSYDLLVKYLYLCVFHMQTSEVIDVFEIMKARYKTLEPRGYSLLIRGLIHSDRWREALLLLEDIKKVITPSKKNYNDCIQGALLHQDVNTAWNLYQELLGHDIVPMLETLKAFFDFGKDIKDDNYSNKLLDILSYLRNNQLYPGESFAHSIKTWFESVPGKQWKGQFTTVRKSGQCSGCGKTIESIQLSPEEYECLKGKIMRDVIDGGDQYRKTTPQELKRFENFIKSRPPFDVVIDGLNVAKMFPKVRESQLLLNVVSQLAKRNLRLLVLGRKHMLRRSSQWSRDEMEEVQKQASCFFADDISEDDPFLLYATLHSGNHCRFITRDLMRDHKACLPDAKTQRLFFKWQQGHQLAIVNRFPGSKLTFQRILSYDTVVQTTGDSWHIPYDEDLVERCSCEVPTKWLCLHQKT
UniProt P41743, whole entry, looked up: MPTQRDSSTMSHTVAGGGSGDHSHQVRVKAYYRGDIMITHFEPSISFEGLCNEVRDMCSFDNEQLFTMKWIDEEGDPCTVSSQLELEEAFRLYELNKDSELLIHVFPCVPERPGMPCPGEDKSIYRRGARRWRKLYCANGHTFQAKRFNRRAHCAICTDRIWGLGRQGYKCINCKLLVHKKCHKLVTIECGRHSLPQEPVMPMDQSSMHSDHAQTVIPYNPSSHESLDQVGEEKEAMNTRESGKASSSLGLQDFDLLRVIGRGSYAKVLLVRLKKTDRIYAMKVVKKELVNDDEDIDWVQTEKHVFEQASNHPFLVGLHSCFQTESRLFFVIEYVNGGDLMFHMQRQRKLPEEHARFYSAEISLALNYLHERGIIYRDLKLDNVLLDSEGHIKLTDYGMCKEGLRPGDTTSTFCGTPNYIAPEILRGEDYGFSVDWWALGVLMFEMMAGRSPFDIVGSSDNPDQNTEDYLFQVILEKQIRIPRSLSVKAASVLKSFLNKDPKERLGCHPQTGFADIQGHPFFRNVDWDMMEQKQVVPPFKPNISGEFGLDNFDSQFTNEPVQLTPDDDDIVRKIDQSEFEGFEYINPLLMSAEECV
UniProt Q96A00: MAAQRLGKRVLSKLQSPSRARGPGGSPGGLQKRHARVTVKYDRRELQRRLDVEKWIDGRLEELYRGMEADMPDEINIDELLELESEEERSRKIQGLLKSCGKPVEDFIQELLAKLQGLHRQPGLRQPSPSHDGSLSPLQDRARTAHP
UniProt P63151: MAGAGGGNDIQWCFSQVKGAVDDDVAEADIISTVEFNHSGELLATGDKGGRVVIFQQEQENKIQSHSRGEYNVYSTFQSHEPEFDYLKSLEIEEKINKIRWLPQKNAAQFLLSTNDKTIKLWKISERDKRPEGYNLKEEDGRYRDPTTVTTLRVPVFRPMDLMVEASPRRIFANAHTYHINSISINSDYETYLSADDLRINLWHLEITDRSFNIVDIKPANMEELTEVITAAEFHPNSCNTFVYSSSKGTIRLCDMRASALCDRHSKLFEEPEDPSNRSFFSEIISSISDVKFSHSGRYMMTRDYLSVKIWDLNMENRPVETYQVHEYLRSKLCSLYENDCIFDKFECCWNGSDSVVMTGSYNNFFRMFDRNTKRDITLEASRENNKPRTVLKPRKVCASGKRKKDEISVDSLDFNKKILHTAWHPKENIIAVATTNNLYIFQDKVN
UniProt P30154, whole entry, looked up: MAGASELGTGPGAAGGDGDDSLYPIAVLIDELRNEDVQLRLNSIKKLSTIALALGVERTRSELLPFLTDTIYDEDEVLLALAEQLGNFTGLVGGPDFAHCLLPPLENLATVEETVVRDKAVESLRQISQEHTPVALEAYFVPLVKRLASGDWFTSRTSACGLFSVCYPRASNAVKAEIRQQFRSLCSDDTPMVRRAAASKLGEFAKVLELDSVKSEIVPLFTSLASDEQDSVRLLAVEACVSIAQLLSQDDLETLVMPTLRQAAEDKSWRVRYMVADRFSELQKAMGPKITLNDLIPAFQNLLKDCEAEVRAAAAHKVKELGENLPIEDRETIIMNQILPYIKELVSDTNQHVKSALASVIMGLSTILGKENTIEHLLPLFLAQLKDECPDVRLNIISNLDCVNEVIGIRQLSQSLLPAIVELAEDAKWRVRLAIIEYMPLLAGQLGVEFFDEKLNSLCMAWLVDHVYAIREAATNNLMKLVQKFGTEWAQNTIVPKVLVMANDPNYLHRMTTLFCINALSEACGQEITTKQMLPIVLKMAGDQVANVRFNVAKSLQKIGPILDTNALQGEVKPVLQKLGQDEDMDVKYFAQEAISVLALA
UniProt Q8TF05: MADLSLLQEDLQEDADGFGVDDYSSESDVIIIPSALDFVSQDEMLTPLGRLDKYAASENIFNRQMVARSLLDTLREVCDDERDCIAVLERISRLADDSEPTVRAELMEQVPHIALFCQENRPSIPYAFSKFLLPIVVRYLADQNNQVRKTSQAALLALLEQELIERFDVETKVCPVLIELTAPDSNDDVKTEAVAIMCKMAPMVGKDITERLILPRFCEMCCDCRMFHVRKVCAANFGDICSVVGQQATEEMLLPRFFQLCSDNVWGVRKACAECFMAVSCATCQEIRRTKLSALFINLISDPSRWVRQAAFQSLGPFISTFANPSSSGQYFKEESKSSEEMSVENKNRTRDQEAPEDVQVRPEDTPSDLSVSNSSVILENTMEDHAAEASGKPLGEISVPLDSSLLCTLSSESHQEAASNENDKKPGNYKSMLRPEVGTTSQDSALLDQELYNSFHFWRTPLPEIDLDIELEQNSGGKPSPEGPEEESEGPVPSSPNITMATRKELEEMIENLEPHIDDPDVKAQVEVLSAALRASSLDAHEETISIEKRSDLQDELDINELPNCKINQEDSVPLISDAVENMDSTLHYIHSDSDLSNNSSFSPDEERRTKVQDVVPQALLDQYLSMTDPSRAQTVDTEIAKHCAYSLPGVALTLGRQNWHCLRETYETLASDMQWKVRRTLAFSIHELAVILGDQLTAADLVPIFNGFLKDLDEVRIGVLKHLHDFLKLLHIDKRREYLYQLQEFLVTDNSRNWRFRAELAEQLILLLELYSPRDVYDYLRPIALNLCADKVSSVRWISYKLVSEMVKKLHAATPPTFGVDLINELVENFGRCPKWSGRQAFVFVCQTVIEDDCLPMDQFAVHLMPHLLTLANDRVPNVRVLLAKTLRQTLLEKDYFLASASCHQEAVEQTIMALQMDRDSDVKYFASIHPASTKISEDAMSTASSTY
UniProt Q13427: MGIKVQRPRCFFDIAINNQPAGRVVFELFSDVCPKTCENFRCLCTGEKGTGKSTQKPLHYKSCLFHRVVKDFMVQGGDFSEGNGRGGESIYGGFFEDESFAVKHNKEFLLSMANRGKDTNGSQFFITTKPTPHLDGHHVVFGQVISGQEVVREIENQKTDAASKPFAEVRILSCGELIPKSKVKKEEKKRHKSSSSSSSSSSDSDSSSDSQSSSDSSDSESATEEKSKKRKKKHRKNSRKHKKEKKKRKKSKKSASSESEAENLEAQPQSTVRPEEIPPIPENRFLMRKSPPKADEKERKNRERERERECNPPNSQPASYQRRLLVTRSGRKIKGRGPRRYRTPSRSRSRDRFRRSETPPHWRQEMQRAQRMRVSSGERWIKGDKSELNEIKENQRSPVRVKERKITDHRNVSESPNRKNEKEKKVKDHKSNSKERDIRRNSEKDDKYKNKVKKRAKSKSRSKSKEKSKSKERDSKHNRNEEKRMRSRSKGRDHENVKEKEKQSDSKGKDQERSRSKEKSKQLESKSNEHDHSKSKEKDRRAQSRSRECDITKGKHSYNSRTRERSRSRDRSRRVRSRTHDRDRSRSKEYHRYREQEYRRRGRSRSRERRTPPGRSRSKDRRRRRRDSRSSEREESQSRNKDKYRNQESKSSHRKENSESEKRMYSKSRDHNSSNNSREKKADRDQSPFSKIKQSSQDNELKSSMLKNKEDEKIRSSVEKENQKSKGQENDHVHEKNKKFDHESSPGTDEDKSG

Compound in experiment [1]: CCCS(=O)(=O)Nc1ccc(F)c(C(=O)c2c[nH]c3ncc(Cl)cc23)c1F
The gist of the method: as §1

Compound in a further experiment: CCN(CCCOc1ccc2c(Nc3cc(CC(=O)Nc4cccc(F)c4)[nH]n3)ncnc2c1)CCOP(=O)(O)O [barasertib]
A digest of the protocol: as §1

Compound in experiment [2]: CC[C@@H]1C(=O)N(C)c2cnc(Nc3ccc(C(=O)NC4CCN(C)CC4)cc3OC)nc2N1C1CCCC1
The gist of the method:
as §1

Compound in the next experiment: CC[C@@H]1C(=O)N(C)c2cnc(Nc3ccc(C(=O)N[C@H]4CC[C@H](N5CCN(CC6CC6)CC5)CC4)cc3OC)nc2N1C(C)C [volasertib]
A digest of the protocol: as §1

Compound in experiment [3]: CCn1c(C(=O)N(C2CC2)C2CC2)cc2c3c(ncn3C)c(Nc3cc(C)n(C)n3)nc21
The gist of the method:
as §1

Compound in experiment [4]: CCn1cc(-c2ccnc3[nH]c(-c4cccc(CN(C)C)c4)cc23)c(-c2ccc(NC(=O)N(C)C)cc2)n1
The gist of the method: as §1

Compound in experiment [5]: CN1CCC(CNc2ccc3ncc(-c4cccc(OC(F)(F)F)c4)n3n2)CC1
A digest of the protocol: as §1

Compound in a further experiment: CN1CCN(CCOc2cc(OC3CCOCC3)c3c(Nc4c(Cl)ccc5c4OCO5)ncnc3c2)CC1 [saracatinib]
A digest of the protocol: as §1

Compound in another experiment: CN1CCN(c2nc(C3=C(c4c[nH]c5ccccc45)C(=O)NC3=O)c3ccccc3n2)CC1 [sotrastaurin]
The gist of the method:
as §1

The other results are listed elsewhere or left out.

Take PRKAA1 isoform 2 (UniProt Q13131): the log2 fold change in the experiment with vemurafenib was inactive: -0.088; in experiment [1] it was inactive: -0.002; with barasertib, inactive: -0.042; in experiment [2], inactive: -0.07; with volasertib it was inactive: -0.076; in experiment [3], inactive: 0.028. In addition, the log2 fold change in experiment [4] was inactive: 0.021; in experiment [5], inactive: 0.108; in the experiment with saracatinib it was inactive: -0.023; with sotrastaurin it was inactive: 0.07.
As for PRKAB1 (UniProt Q9Y478), the log2 fold change was inactive: -0.004 with vemurafenib; inactive: 0.04 in experiment [1]; inactive: -0.04 in the experiment with barasertib; inactive: 0.018 in experiment [2]; inactive: -0.07 with volasertib; inactive: -0.008 in experiment [3]. Further, the log2 fold change is inactive: 0.056 in experiment [4], inactive: 0 in experiment [5], inactive: 0.085 with saracatinib and inactive: 0.036 in the experiment with sotrastaurin.
For PPM1A isoform 3 (UniProt P35813), the log2 fold change with vemurafenib was inactive: 0.022; in experiment [1], inactive: 0.054; in the experiment with barasertib, inactive: -0.031; in [2] it was inactive: 0.004; with volasertib, inactive: -0.025; in experiment [3], inactive: 0.007. Further, the log2 fold change was inactive: 0.024 in experiment [4], inactive: 0.011 in experiment [5], inactive: -0.006 in the experiment with saracatinib and inactive: 0.014 in the experiment with sotrastaurin.
With PPIL2 (UniProt Q13356), the log2 fold change is inactive: 0.012 with vemurafenib; inactive: 0.015 in experiment [1]; inactive: 0.035 with barasertib; inactive: -0.013 in experiment [2]; inactive: -0.06 with volasertib; inactive: 0 in experiment [3]. Besides, the log2 fold change in [4] is inactive: -0.023; in experiment [5], inactive: 0.016; with saracatinib, inactive: -0.032; with sotrastaurin, inactive: 0.024.
For the target PRKAB2 (UniProt O43741), the log2 fold change was inactive: 0.022 with vemurafenib; inactive: 0.104 in experiment [1]; inactive: -0.081 with barasertib; inactive: 0 in [2]; inactive: -0.05 in the experiment with volasertib; inactive: -0.094 in [3]. Besides, the log2 fold change was active: -0.85 in experiment [4], inactive: 0.303 in experiment [5], inactive: 0.029 with saracatinib and inactive: 0.026 in the experiment with sotrastaurin.
For PPP3R1 (UniProt P63098), the log2 fold change is inactive: -0.009 in the experiment with vemurafenib; inactive: -0.011 in experiment [1]; inactive: 0.115 in the experiment with barasertib; inactive: 0.007 in [2]; inactive: 0.04 with volasertib; inactive: 0.029 in experiment [3]. In addition, the log2 fold change is inactive: 0.007 in [4], inactive: -0.05 in experiment [5], inactive: -0.034 in the experiment with saracatinib and inactive: -0.052 with sotrastaurin.
Regarding PRPF39 (UniProt Q86UA1), the log2 fold change with vemurafenib was inactive: -0.015; in experiment [1], inactive: -0.006; with barasertib, inactive: 0.024; in [2], inactive: -0.064; with volasertib, inactive: -0.084; in experiment [3], inactive: 0.034. The log2 fold change is inactive: -0.051 in experiment [4], inactive: 0.01 in experiment [5], inactive: 0.004 in the experiment with saracatinib and inactive: 0.01 with sotrastaurin.
Consider PRORP (UniProt O15091), for which the log2 fold change is inactive: 0.012 with vemurafenib; inactive: 0.092 in experiment [1]; inactive: 0.103 with barasertib; inactive: -0.109 in experiment [2]; inactive: -0.218 with volasertib; inactive: 0.205 in experiment [3]. The log2 fold change is inactive: 0.097 in experiment [4], inactive: -0.24 in experiment [5], inactive: -0.026 with saracatinib and inactive: 0.059 in the experiment with sotrastaurin.
With PRKCI (UniProt P41743), the log2 fold change is inactive: -0.033 in the experiment with vemurafenib; inactive: 0.079 in experiment [1]; inactive: -0.009 with barasertib; inactive: -0.018 in experiment [2]; inactive: -0.03 with volasertib; inactive: -0.029 in experiment [3]. In addition, the log2 fold change in experiment [4] is inactive: -0.004; in experiment [5], inactive: 0.003; with saracatinib it was inactive: -0.048; with sotrastaurin, inactive: -0.041.
Take PREP (UniProt P48147): the log2 fold change was inactive: 0.028 with vemurafenib; inactive: 0.011 in [1]; inactive: -0.003 with barasertib; inactive: -0.025 in experiment [2]; inactive: -0.025 in the experiment with volasertib; inactive: 0.023 in experiment [3]. Besides, the log2 fold change in [4] is inactive: 0.008; in [5], inactive: -0.013; with saracatinib, inactive: 0.005; with sotrastaurin it was inactive: 0.001.
For the target PPP1R14A (UniProt Q96A00), the log2 fold change in the experiment with vemurafenib was inactive: 0.052; in experiment [1], inactive: -0.022; in the experiment with barasertib, inactive: -0.027; in [2] it was inactive: 0.097; with volasertib, inactive: 0.093; in [3], inactive: -0.059. Also, the log2 fold change in experiment [4] is inactive: 0.028; in experiment [5], inactive: 0.019; with saracatinib, inactive: 0.024; in the experiment with sotrastaurin, inactive: 0.011.
Take PPP2R2A isoform 2 (UniProt P63151): the log2 fold change with vemurafenib is inactive: 0.033; in experiment [1], inactive: -0.003; with barasertib it was inactive: 0; in experiment [2], inactive: 0.009; in the experiment with volasertib, inactive: 0.02; in experiment [3], inactive: -0.051. For the same target, the log2 fold change is inactive: -0.064 in experiment [4], inactive: 0.059 in [5], inactive: 0.002 with saracatinib and inactive: 0.005 in the experiment with sotrastaurin.
Turning to PPP2R1B isoform 2 (UniProt P30154), the log2 fold change is inactive: 0.032 with vemurafenib; inactive: -0.013 in experiment [1]; inactive: 0.019 with barasertib; inactive: -0.01 in experiment [2]; inactive: -0.055 with volasertib; inactive: -0.001 in [3]. Further, the log2 fold change is inactive: 0.086 in experiment [4], inactive: -0.075 in [5], inactive: 0.008 with saracatinib and inactive: 0.011 with sotrastaurin.
PPP4R1 (UniProt Q8TF05): the log2 fold change with vemurafenib was inactive: -0.019; in experiment [1], inactive: 0.021; with barasertib it was inactive: -0.011; in [2] it was inactive: -0.017; with volasertib it was inactive: -0.05; in [3], inactive: 0.008. The log2 fold change in experiment [4] is inactive: -0.013; in experiment [5], inactive: 0.005; with saracatinib, inactive: 0.009; with sotrastaurin it was inactive: 0.016.
Turning to PPIG (UniProt Q13427), the log2 fold change in the experiment with vemurafenib was inactive: -0.135; in experiment [1], inactive: 0.053; with barasertib it was inactive: 0.128; in experiment [2], inactive: -0.152; with volasertib, inactive: -0.039; in experiment [3] it was inactive: -0.033. Moreover, the log2 fold change is inactive: -0.099 in experiment [4], inactive: 0.1 in experiment [5], inactive: -0.057 with saracatinib and inactive: -0.022 in the experiment with sotrastaurin.

The values are drawn from the supplement of paper PMC10849652.
